Reference: PubChem BioAssay AID504467 (National Center for Advancing Translational Sciences (NCATS), 2011)
Among all 330,000 compounds or so, about 7,700 (2.3%) were called active. This list was built around the results that the source calls inconclusive (neither active nor inactive); the mix of calls is not that of the screen. The call rests on the fitted dose curve; in most records, active means well fitted inhibition curve with a large enough effect; inconclusive means small, poorly fitted or top-dose-only effect, or effect the other way; inactive means flat fitted curve, though single readings scatter. Where the call is inconclusive, the potency comes from a doubtful curve fit.

Test: qHTS screen for small molecules that inhibit ELG1-dependent DNA repair in human embryonic kidney (HEK293T) cells expressing luciferase-tagged ELG1; further: nearly all actives have a fitted effect of over 55% in size
Details: HEK293T ELG1-luciferase reporter, luminescence, 16 h, DNA damage induced by 5-fluorouridine; series mostly up to 46.1 µM
In short: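 HEK293T cells expressing luciferase-tagged ELG1 (2,000/well) received 5-Fluorouridine plus compound or DMSO for 16 hr at 37 °C. Luciferase was read by ONE-Glo luminescence after 30 min at room temperature.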
Potency means the concentration at half of the fitted maximal effect.

Structure (SMILES)	Potency
CC1C=CCC2C(=O)N(c3cccc(C(=O)N4CCN(c5ccc(F)cc5)CC4)c3)C(=O)C12 (centres undefined)	inconclusive: 5.8 µM [activator, partial curve]
COc1ccc(S(=O)(=O)N2CCN(C(=O)CCSc3ccccc3)CC2)cc1	inconclusive: 25.9 µM [inhibitor, partial curve, poor fit]
Cc1cc(NC(=O)c2ccc3nc(C)sc3c2)no1	inconclusive: 2.91 µM [activator, full curve]
O=C(O)c1ccc(COc2ccc3c(c2)CCC3)cc1	inconclusive: 0.82 µM [activator, partial curve]
Cc1cc2nc(CCN(Cc3cccnc3)C(=S)Nc3ccc(F)cc3)[nH]c2cc1C	inconclusive: 29.1 µM [inhibitor, single point]
COc1cc(/C=C2/SC(=Nc3ccc(O)cc3)NC2=O)ccc1O	inconclusive: 16.4 µM [inhibitor, single point]
COc1ccc(-n2nc(C(=O)N(C)C)nc2-c2ccccc2)cc1	inactive
Nc1cc(=O)[nH]c(SCC(=O)Nc2ccc(S(=O)(=O)N3CCCCC3)cc2)n1	inconclusive: 18.3 µM [inhibitor, partial curve, poor fit]
CCN(CC)C(=O)CSc1nc(O)c(Cc2ccccc2)c(=O)n1-c1ccccc1C	inactive
CCCC(=O)N1CCN(c2nc3ccc(CC)cc3s2)CC1	inconclusive: 8.2 µM [activator, partial curve]
O=C(Cn1cnc2ccccc2c1=O)Nc1ccccc1N1CCOCC1	inconclusive: 4.11 µM [inhibitor, single point]
COc1cc(/C=C/C(=O)OCC(=O)c2ccccc2)cc(OC)c1OC	inactive
c1ccc(-c2csc(NC3CCCCC3)n2)cc1	inconclusive: 9.2 µM [activator, partial curve]
CCOc1ccc(/C=N/NC(=O)c2nnn(-c3nonc3N)c2-c2ccc(OCC)cc2)cc1	inconclusive: 20.6 µM [inhibitor, partial curve, poor fit]
CCOC(=O)Cc1csc(NC(=S)NC(=O)c2cc(OC)cc(OC)c2)n1	inconclusive: 20.6 µM [inhibitor, partial curve]
CCCN(CCC)S(=O)(=O)c1ccc2c(c1)CCCN2C(C)=O	inactive
CC(C)CNS(=O)(=O)c1ccc(C(=O)Nc2ccc3c(c2)OCCO3)cc1	inconclusive: 23.1 µM [activator, partial curve]
CC(C)c1ccccc1OCC(O)CN1CCN(S(=O)(=O)c2ccc([N+](=O)[O-])cc2)CC1 (centres undefined)	inconclusive: 29.1 µM [inhibitor, single point]
COC(=O)c1ccc(/C=N\N2CCN(c3ccccc3)CC2)cc1	inconclusive: 3.66 µM [activator, partial curve, poor fit]
CCN(CCn1cccn1)Cc1cn[nH]c1-c1ccc(-c2ccccc2)cc1	inconclusive: 7.3 µM [activator, partial curve]
CCc1sc(C(=O)Nc2ccc(NC(C)=O)cc2)cc1C	inconclusive: 14.6 µM [activator, partial curve]
Cc1nc(-c2ccc(S(=O)(=O)NCc3cccnc3)s2)cs1	inconclusive: 18.3 µM [inhibitor, partial curve, poor fit]

Structure (SMILES)	Potency
CCNC(=S)N/N=C(\C)c1cccc(OC)c1	inactive
CCc1nc2ccc(C(=O)NCc3ccccc3)cc2nc1CC	inconclusive: 16.4 µM [inhibitor, partial curve]
COC(=O)c1ccc(OCCOc2ccccc2)cc1	inconclusive: 13 µM [activator, partial curve]
COCc1cc(N2CCCCC2)nc(-c2ccccc2)n1	inactive
O=C(NCc1ccc(F)cc1)c1cnc2sccn2c1=O	inactive
COc1ccccc1C(=O)NC(=O)Nc1c(C)cc(C)cc1C	inactive
CC(C)Cn1c(N)c(C(=O)COC(=O)C2CCCCC2)c(=O)n(C)c1=O	inconclusive: 20 µM [inhibitor, single point]
CCN(CC)S(=O)(=O)N1CCC(C(=O)NCc2ccc(C)cc2)CC1	inactive
CCOC(=O)C1(Cc2ccccc2)CCN(Cc2cccn2-c2nccs2)CC1	inactive
CC(=O)O[C@]1(C(C)=O)CCC2C3C=C(C)C4=CC(=O)CC[C@]4(C)C3CC[C@@]21C (some centres undefined)	inconclusive: 14.6 µM [inhibitor, partial curve, poor fit]
CN(Cc1ccc(F)cc1)C(=O)CNC(=O)C1CCCCC1	inactive
Cn1c(N/N=C/c2c[nH]c3ccccc23)nc2ccccc21	inconclusive: 0.259 µM [inhibitor, single point]
Cc1cccc(-n2ccnc2SCC(=O)Nc2nccs2)c1C	inconclusive: 25.9 µM [inhibitor, single point]
Cc1ncc(CO)c(/C=N/NC(=O)c2cc(Br)ccc2O)c1O	active: 16.4 µM
Cc1ccc(S(=O)(=O)N2CCOC2CNC(=O)C(=O)NCCN2CCOCC2)cc1 (centres undefined)	inactive
Cc1nc(SCC(=O)c2cc3ccccc3oc2=O)c(C#N)c(-c2cccs2)c1C(=O)Nc1ccccc1	inconclusive: 18.3 µM [inhibitor, partial curve, poor fit]
CCn1cc(CN2CCC(n3nccc3NC(=O)c3ccc4c(c3)OCO4)CC2)c(C)n1	inactive
CCCCn1nc(NC(=O)c2cccs2)c2cc3ccccc3nc21	inconclusive: 20.6 µM [inhibitor, single point]
COc1cc(OC)c(OC)cc1/C=N/Nc1nc2ccccc2[nH]1	inconclusive: 1.16 µM [activator, single point]
N/C(=N\OC(=O)c1cccc(Br)c1)c1ccccn1	inconclusive: 0.92 µM [activator, partial curve]
Clc1cccc(OCc2nnc(-c3ccccc3Br)o2)c1	inconclusive: 20.6 µM [activator, single point]
Cc1ccc(OCc2ccc(C(=O)N3CCCC3)o2)c([N+](=O)[O-])c1	inconclusive: 18.3 µM [activator, partial curve]

Part of the list above, with bars between the fields.
Structure (SMILES) | Potency
CCN(CC)S(=O)(=O)N1CCC(C(=O)NCc2ccc(C)cc2)CC1 | inactive
CCOC(=O)C1(Cc2ccccc2)CCN(Cc2cccn2-c2nccs2)CC1 | inactive
